# Results as given in article PMC11439715.
# By UniProt entry, the sequences of proteins in these tests, tags left out. Residues count along the entry.
# UniProt P05067, residues 18-770: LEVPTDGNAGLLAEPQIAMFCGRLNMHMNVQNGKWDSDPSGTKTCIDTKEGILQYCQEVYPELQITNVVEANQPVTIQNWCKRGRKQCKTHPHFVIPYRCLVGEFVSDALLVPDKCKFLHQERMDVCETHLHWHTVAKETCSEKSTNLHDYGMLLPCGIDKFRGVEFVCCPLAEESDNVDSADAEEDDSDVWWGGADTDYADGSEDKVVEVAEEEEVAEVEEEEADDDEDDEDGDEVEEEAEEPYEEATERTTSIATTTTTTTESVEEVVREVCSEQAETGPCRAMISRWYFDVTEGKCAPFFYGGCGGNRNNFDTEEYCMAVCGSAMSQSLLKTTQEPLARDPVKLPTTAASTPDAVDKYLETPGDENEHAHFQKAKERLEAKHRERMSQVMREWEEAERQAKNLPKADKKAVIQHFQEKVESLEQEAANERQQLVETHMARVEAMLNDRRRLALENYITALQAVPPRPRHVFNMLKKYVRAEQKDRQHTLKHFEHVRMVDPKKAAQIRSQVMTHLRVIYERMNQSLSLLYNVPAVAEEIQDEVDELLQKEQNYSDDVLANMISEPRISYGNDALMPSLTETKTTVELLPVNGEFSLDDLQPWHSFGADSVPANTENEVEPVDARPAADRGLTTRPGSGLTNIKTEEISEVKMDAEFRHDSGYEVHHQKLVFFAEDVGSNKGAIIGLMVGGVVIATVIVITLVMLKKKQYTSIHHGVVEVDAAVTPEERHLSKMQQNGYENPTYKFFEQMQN
# UniProt P04233: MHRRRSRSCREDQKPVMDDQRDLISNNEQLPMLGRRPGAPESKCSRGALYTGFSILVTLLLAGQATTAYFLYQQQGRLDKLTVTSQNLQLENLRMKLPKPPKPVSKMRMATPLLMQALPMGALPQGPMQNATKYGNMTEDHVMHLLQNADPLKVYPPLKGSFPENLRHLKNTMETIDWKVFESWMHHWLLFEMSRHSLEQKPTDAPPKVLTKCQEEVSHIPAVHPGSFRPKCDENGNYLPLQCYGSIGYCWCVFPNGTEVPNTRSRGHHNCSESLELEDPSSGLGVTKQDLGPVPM
# No constants are given. Whether binding was seen depends on the method and setting. In cells and extracts the contact can be indirect. Some entries that bind do so weakly or less than the wild type.
# Target: Amyloid beta precursor protein (UniProt P05067)
# Assay: co-IP; Pierce Co-IP kit; 1,000 ug protein diluted to 500 ul with 5 ug APP antibody, overnight at 4°C; 25 µL Protein A/G beads; elution and protein blotting; source of the protein sample not stated
substance,measurement,value
CD74 (from UniProt P04233 1-296),binding,binds
